Results as given in the supplement of paper PMC10338343.
± gives the standard deviation. The list shows a part of the results, in another mix than the full data. The uncertainty is large for many entries. Some of the results follow.

Test system: MIWI (PIWIL1) piRISC loaded with L1MC piRNA (30 nt);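 also: 1 nM active piRISC with 0.1 nM target library at 33 °C single turnover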
Experiment: pre-steady-state target cleavage rate (min^-1); higher = faster piRNA-guided slicing of the target
Conditions: guide: L1MC piRNA 5'p-UAACUAAAUACUAUGCAAGCUGUAGGUCCU; auxiliary factor: none (no GTSF1)
Outline: (§1)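 In this Cleave-'n-Seq assay, uncleaved targets were sequenced and normalised to depth and to weakly complementary targets. They came from a transcribed, DNA-blocked target RNA library […] mixed with 1 nM active affinity-purified piRISC carrying one synthetic guide, with or without 500 nM GTSF1 partner protein, in HEPES–potassium acetate buffer at 33 °C for 0–8 or 0–960 min. After three trials were pooled and k3 was capped at 0.0001 min^-1, the pre-steady-state cleavage rate was obtained from a burst-and-steady-state fit.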

Sequence | pre-steady-state target cleavage rate
UCCUGGAUGUCCUUGCUUAGUAAUUAGUUA | 0.00118 ± 0.0043
UCCUGGUACAGCUUGCAUAGUAUUUAGAUUA | 0.0165 ± 0.0061
UCCUGGAACUGCAUGCAUAGUAUUUAGUUA | 0.00687 ± 0.0019
UCCUGGAACAGCUUGCAUAGUAUUAUGUUA | 0.013 ± 0.0044
UCCUGGAUGUCGUUGCAUUGUAUUUAGUUA | 0.000693 ± 0.0097
UCCUGGAUGUGCUUGCAUAGUUUUUAGAAA | 0.00199 ± 0.0034
UCCUCCAUGAGCUUGCAUAGUAUUUAGUAA | 0.0262 ± 0.0057
UCCUGGAUCAGCAUGCAUAGUAUUUAGAUA | 0.00494 ± 0.0022
UCCUGGAUGUGCUUGCAUAGUAUAAAGUAA | 0.00133 ± 0.0053
UCCUGGAUCAGCUUGCAUACAUUUUUCAAA | 0.000639 ± 0.0092
UCCUGGAUCAGGUUCCAUAGUAUUUAGUUA | 0.000556 ± 0.011
UCCUGGAUGUCGUAGCAUACUAUUUAGUUA | 0.000516 ± 0.014
UCCUGCUACAGCUUCGUUAGUAUUUAGAAA | 0.000594 ± 0.01
UCCUGGUACAGCUUGCAUACAUUUUAGUUA | 0.000631 ± 0.0086
UCCUGGAUGAGCUUGCUAGUAUUUAGUUA | 0.000752 ± 0.008
UCCUGGAUGUGCUUGCAGUAGUAUUUAGUUA | 0.000749 ± 0.012
UCCUGGAUCAGCUUGCAUAGUAUUUAGUUA [g2:g22:cont:t1A] | 0.0516 ± 0.0097
UCCUGGAACAGCUUGGUAAGUAUUUAGUAA | 0.00133 ± 0.004
UCCUGGAUGUGCUUCCUUAGUAUUUAGUUA | 0.000862 ± 0.0078
UCCUCGUACAGCUUGCAUAGUUUUUAGUUA | 0.0475 ± 0.011

Sequence | pre-steady-state target cleavage rate
UCCUGCUUGAGCUUGCAUAGUAUUUAGUAA | 0.0206 ± 0.004
UCCUCCUACAGCUUACAUAGUAUUUAGUUA | 0.0275 ± 0.0041
UCCUGGAUGUGCUUGCAAUCUAUUUAGAAA | 0.000568 ± 0.011
UCCUGCUACAGCUUGGAUAGUAUUUUCAAA | 0.00098 ± 0.0061
UCCUGGAUGUGCUUGCAUAUGUAUUUAGUUA | 0.000984 ± 0.01
UCCUGGAUGUCCUUGCAUAGUACUUUAGUUA | 0.00199 ± 0.0039
UCCUGGAUGAGCUUGGUAAGUAUUUAGUUA | 0.00163 ± 0.0046
UCCUGGAUGUGCUUGCAUAGCUAUUUAGUUA | 0.00165 ± 0.0067
UCCUGGAUGUCGUAGCUUAGUAUUUAGUUA | 0.000844 ± 0.0077
UCCUGGAUGUCCUUGCUUAGUAUUUUGUUA | 0.00178 ± 0.0041
UCCUGGAUGUGCUAGCAUAGAAUUUAGUUA | 0.00207 ± 0.0038
UCCUGGAUCUAGCUUGCAUAGUAUUUAGUUA | 0.0445 ± 0.011
UCCUGGAUGUCGAACGAUACUAUUUAGAUA | 0.000144 ± 0.049
UCCUCCUACAGCUUGCUUAGUAUAUAGUUA | 0.0104 ± 0.0032
UCCUGGAUCAGCUUGGAUUGUAUUUAGUUA | 0.000807 ± 0.011
UCCUGGAUGUCGAAGCAUAGUUUUUUGUUA | 0.000636 ± 0.0092
UCCUGGAUGAGCUUCCAUAGUUUUUAGUUA | 0.000895 ± 0.0089
UCCUGGAUGUCGUUGCUAGUAUUUAGUUA | 0.00139 ± 0.0047
UCCUGGAUGUCGUUGCAAAGUAUUUAGUAA | 0.000598 ± 0.0079
UCCUGGAUGUCCUAGCUUAGUAUUUAGUUA | 0.000843 ± 0.0073

Test system: EfPiwi piRISC loaded with L1MC piRNA (26 nt)
Experiment: pre-steady-state target cleavage rate (min^-1); guide: L1MC piRNA 5'p-UAACUAAAUACUAUGCAAGCUGUAGG; MIWI and MILI are mouse PIWI proteins and EfPiwi is from a freshwater sponge; tags in brackets are library labels; higher = faster piRNA-guided slicing of the target
Conditions: auxiliary factor: 500 nM Ephydatia muelleri Gtsf1
Outline: as §1

Sequence | pre-steady-state target cleavage rate
UCCUGGAUGUCCUUGCUUAGUAAUUAGUUA | 0.000275 ± 0.016
UCCUGGUACAGCUUGCAUAGUAUUUAGAUUA | 0.00491 ± 0.0025
UCCUGGAACUGCAUGCAUAGUAUUUAGUUA | 0.0126 ± 0.0039
UCCUGGAUGUCGUUGCAUUGUAUUUAGUUA | 0.00116 ± 0.0063
UCCUGGAUGUGCUUGCAUAGUUUUUAGAAA | 0.000713 ± 0.0044
UCCUCCAUGAGCUUGCAUAGUAUUUAGUAA | 0.00588 ± 0.0024
UCCUGGAUCAGCAUGCAUAGUAUUUAGAUA | 0.0044 ± 0.0024
UCCUGGAUGUGCUUGCAUAGUAUAAAGUAA | 0.00248 ± 0.0044
UCCUGGAUCAGCUUGCAUACAUUUUUCAAA | 0.00117 ± 0.006
UCCUGGAUCAGGUUCCAUAGUAUUUAGUUA | 0.000735 ± 0.0043
UCCUGGAUGUCGUAGCAUACUAUUUAGUUA | 0.000293 ± 0.011
UCCUGCUACAGCUUCGUUAGUAUUUAGAAA | 0.000196 ± 0.011
UCCUGGUACAGCUUGCAUACAUUUUAGUUA | 0.000321 ± 0.017
UCCUGGAUGAGCUUGCUAGUAUUUAGUUA | 0.000954 ± 0.0061
UCCUGGAUGUGCUUGCAGUAGUAUUUAGUUA | 0.000395 ± 0.011
UCCUGGAUCAGCUUGCAUAGUAUUUAGUUA [g2:g22:cont:t1A] | 0.0886 ± 0.017
UCCUGGAACAGCUUGGUAAGUAUUUAGUAA | 0.00033 ± 0.01
UCCUGGAUGUGCUUCCUUAGUAUUUAGUUA | 0.00175 ± 0.0044
UCCUCGUACAGCUUGCAUAGUUUUUAGUUA | 0.0267 ± 0.0072

Sequence | pre-steady-state target cleavage rate
UCCUGCUUGAGCUUGCAUAGUAUUUAGUAA | 0.00772 ± 0.0023
UCCUCCUACAGCUUACAUAGUAUUUAGUUA | 0.106 ± 0.028
UCCUGCUACAGCUUGGAUAGUAUUUUCAAA | 0.00307 ± 0.0018
UCCUGGAUGUGCUUGCAUAUGUAUUUAGUUA | 0.000372 ± 0.014
UCCUGGAUGUCCUUGCAUAGUACUUUAGUUA | 0.00138 ± 0.0032
UCCUGGAUGAGCUUGGUAAGUAUUUAGUUA | 0.00205 ± 0.0059
UCCUGGAUGUGCUUGCAUAGCUAUUUAGUUA | 0.000434 ± 0.0068
UCCUGGAUGUCGUAGCUUAGUAUUUAGUUA | 0.000285 ± 0.012
UCCUGGAUGUCCUUGCUUAGUAUUUUGUUA | 0.000325 ± 0.0098
UCCUGGAUGUGCUAGCAUAGAAUUUAGUUA | 0.000236 ± 0.023
UCCUGGAUCUAGCUUGCAUAGUAUUUAGUUA | 0.0755 ± 0.019
UCCUCCUACAGCUUGCUUAGUAUAUAGUUA | 0.0127 ± 0.0069
UCCUGGAUCAGCUUGGAUUGUAUUUAGUUA | 0.000301 ± 0.02
UCCUGGAUGUCGAAGCAUAGUUUUUUGUUA | 0.00014 ± 0.032
UCCUGGAUGAGCUUCCAUAGUUUUUAGUUA | 0.00024 ± 0.033
UCCUGGAUGUCGUUGCUAGUAUUUAGUUA | 0.000375 ± 0.0083
UCCUGGAUGUCGUUGCAAAGUAUUUAGUAA | 0.00124 ± 0.0049
UCCUGGAUGUCCUAGCUUAGUAUUUAGUUA | 0.000376 ± 0.0098
